Some of the results follow. The main result of the screen is listed elsewhere. These columns were measured beside it and carry no call. Most of these compounds were active or inconclusive in the main read-out, so they are no random draw. Words in brackets tell the shape of the fitted curve; partial curves, single points and poor fits give uncertain potencies.
Assay: qHTS Assay for Lipid Storage Modulators in Drosophila S3 Cells;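 as to cell number change: cells counted by Cell Tracker Red CMTPX staining in the red channel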
Conditions: BODIPY lipid droplet fluorescence, 18-24 h; for cell number change: measured here: cell count max response, cells fed with added oleic acid
How it was run: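 Laser-scanning cytometry quantifies lipid droplet accumulation (500–530 nm total intensity; droplet/cell object ratio) in oleic acid-fed (400 uM added) Drosophila S3 cells treated with a concentration series. 20 uM Triacsin C defined 100% inhibition.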

[1] = measured here: lipid fluorescence (Fed channel) AC50, cells fed with added oleic acid
[2] = measured here: cell number channel AC50, cells fed with added oleic acid

SMILES | cell number change | AC50 [1] | AC50 [2]
CCOC(=O)c1c(NC(=O)Cc2cccs2)sc2c1CCCC2 | -17.2% | 0.231 µM [rising, full curve, poor fit] | 
Cc1cccc(N2CCN(c3nnc(C(F)(F)F)s3)CC2)c1 | -0.315% | 7.31 µM [falling, partial curve] | 
Cc1cc(C)nc(N/N=C/c2cc(C)n(CC(F)(F)F)c2C)n1 | 40.2% | 0.13 µM [falling, full curve, poor fit] | 
CCN(CC(=O)NCc1ccc(Cl)cc1)C(=O)CN1C(=O)NC(CC)(c2ccccc2)C1=O (stereo not drawn) |  | 29.1 µM [rising, single point] | 
Cc1ccc(NC(=O)CSc2nnc(Cc3csc(C)n3)o2)cc1 | -2.46% | 0.58 µM [falling, single point] | 
S=C(NNc1cccc(Cl)c1)NC1CCCCC1 | 1.78% | 0.00461 µM [falling, full curve, poor fit] | 
CCOC(=O)c1cc(-c2ccccc2)sc1NC(=O)C(C)C | -5.03% | 0.058 µM [falling, full curve, poor fit] | 
Cc1ccc(S(=O)(=O)/N=S(/C)c2ccccc2)cc1 (stereo not drawn) | -13.5% |  | 
COc1cccc(-c2nc(CS(=O)(=O)CC(=O)Nc3ccccc3C)c(C)o2)c1 | -2.75% |  | 
Cc1c(N2C(=O)c3ccccc3C2(O)c2ccccc2)c(=O)n(-c2ccccc2)n1C (stereo not drawn) |  |  | 4.61 µM [falling, single point]
CC1=CC(c2ccc(Cl)cc2)n2nc(NC(=O)c3ccccc3)nc2N1 (stereo not drawn) | 7.47% |  | 
CCOC(=O)Cc1[nH]nc2c1C(Cc1ccccc1)C(C#N)=C(N)O2 (stereo not drawn) | -41.7% | 23.1 µM [falling, single point] | 13 µM [falling, single point]
COc1ccc(CNC(=O)CN2C(=O)C(C)N(c3ccc(C)cc3)C2=O)cc1 (stereo not drawn) | 15.6% | 1.16 µM [rising, full curve, poor fit] | 
COC(=O)CCC(=O)OC1(C)C(=O)C=C2C=C3CCCN3C=C2C1=O (stereo not drawn) | -32.8% | 25.9 µM [falling, single point] | 18.4 µM [falling, single point]
COC(=O)c1cc(S(=O)(=O)NC2CCN(Cc3ccccc3)CC2)cn1C | -33.5% | 29.1 µM [falling, partial curve, poor fit] | 
O=c1oc(-c2cccs2)nc2scc(-c3cccs3)c12 |  | 7.31 µM [falling, partial curve] | 
CC(C)(C)c1nc2c(C#N)c(-c3ccc(Cl)cc3)ccn2n1 |  |  | 1.16 µM [rising, partial curve]
O=C(Nc1ccon1)c1cnc2sccn2c1=O | -30% |  | 0.00461 µM [falling, full curve, poor fit]
O=S(=O)(NOCc1ccc(Cl)cc1)c1ccc(Cl)cc1 | -60.7% | 29.1 µM [falling, single point] | 23.1 µM [falling, single point]
CCS(=O)(=O)c1nnnn1-c1ccccc1S(C)(=O)=O | -29.2% | 18.4 µM [falling, single point] | 
COc1cc(/C=N/N=C/c2cc(OC)c(O)c(OC)c2)cc(OC)c1O | 16.8% |  | 0.92 µM [falling, full curve, poor fit]
Cc1ccc(C(=O)NC2CCSC2=O)cc1 (stereo not drawn) | -4.65% | 14.6 µM [falling, partial curve] | 

One compound at a time, from the list above.
`Cc1ccc(S(=O)(=O)/N=S(/C)c2ccccc2)cc1` (stereo not drawn) as listed: cell number change: -13.5%
`CCS(=O)(=O)c1nnnn1-c1ccccc1S(C)(=O)=O` as listed: cell number change: -29.2%; AC50 [1]: 18.4 µM [falling, single point]
`Cc1c(N2C(=O)c3ccccc3C2(O)c2ccccc2)c(=O)n(-c2ccccc2)n1C` (stereo not drawn) as listed: AC50 [2]: 4.61 µM [falling, single point]

Following part:

SMILES | cell number change | AC50 [1] | AC50 [2]
O=C(OCc1ccccc1)N1CCOCCOCCN(C(=O)OCc2ccccc2)CCOCCOCC1 | -29.7% | 13 µM [falling, partial curve] | 
CCCNC(=O)c1c(N)n(-c2ccc3c(c2)OCO3)c2nc3ccccc3nc12 | -5.66% |  | 
Cc1nnc(SCC(=O)NCCN2C(=O)CSC2=O)n1-c1ccccc1 | 2.73% |  | 4.11 µM [rising, single point]
O=C(Cc1ccccc1)NCCC1=CCCCC1 | -21% | 0.00517 µM [rising, full curve, poor fit] | 3.26 µM [falling, single point]
Cc1ccc(S(=O)(=O)NNC(=O)CCC(=O)Nc2ccccc2Cl)cc1 | 6.23% | 11.6 µM [rising, single point] | 
O=S(=O)(c1ccc(SCCOc2ccc(Br)cc2)nc1)N1CCCC1 | -39.8% |  | 6.51 µM [falling, full curve, poor fit]
CC1CCCN(CCCNC(=O)c2ccc3c(c2)N(Cc2ccccc2F)C(=O)c2ccccc2S3(=O)=O)C1 (stereo not drawn) | -33% | 6.51 µM [falling, single point] | 1.03 µM [falling, full curve, poor fit]
COc1ccc(CN(C(=O)c2ccco2)C2CCS(=O)(=O)C2)cc1 (stereo not drawn) | 17.3% | 29.1 µM [falling, single point] | 
O=C(COc1ccc(Cl)cc1Cl)Nc1nc2n(n1)C(c1ccccc1)CC(=O)N2 (stereo not drawn) | -19.2% | 0.231 µM [falling, full curve] | 
Cc1c(Cl)cccc1NC(=O)CCN1CCC(C(N)=O)CC1 | 12.6% |  | 
COc1cc(/C=N/n2c(C3CCCCC3)n[nH]c2=S)cc(Br)c1O | -23.6% |  | 
Cc1cccc(N2CCN(C(=O)c3ccc(CS(=O)Cc4cccc(Cl)c4)o3)CC2)c1C (stereo not drawn) | -66.3% |  | 9.2 µM [falling, single point]
Oc1c(CN2CCCCC2)cc(Br)c2cccnc12 | -23.9% | 0.116 µM [rising, full curve, poor fit] | 
Cc1ccc(COc2ccc(S(=O)(=O)N3CCCC3)cc2C(N)=O)cc1 | 99.6% |  | 25.9 µM [rising, single point]
COc1ccccc1C(=O)OCC#CCSc1nnc(-c2cccc3ccccc23)o1 | 27.3% |  | 
N=C1C(c2nc(-c3ccc(Cl)cc3)cs2)=C(O)CN1NC(=O)c1ccc(O)cc1 |  | 3.66 µM [rising, partial curve] | 
CCc1ccc(OCc2nnc(SCC(=O)NC3CCCCC3)o2)cc1 | -7.62% |  | 
O=C(Nc1cccc(F)c1)C1CCCN(S(=O)(=O)c2cnc[nH]2)C1 (stereo not drawn) | 3.83% | 0.116 µM [falling, full curve, poor fit] | 
COc1ccc(C(=O)OCCCN(C)C)cc1OC | 6.58% |  | 
COc1ccc2nc(C)c(C(=O)NN)cc2c1 | 33.5% |  | 
Cc1ccc(C(=O)Nn2cnc3scc(-c4cccs4)c3c2=O)c(O)c1 | -11.5% |  | 0.92 µM [falling, full curve, poor fit]
CCC(C)(C)NC(=O)c1ccc2c(c1)S(=O)(=O)c1ccccc1C2=O | -16.6% | 0.82 µM [falling, full curve, poor fit] | 

SMILES | cell number change | AC50 [1] | AC50 [2]
COCCn1c(SCC(=O)Nc2ccc(Cl)cn2)nc2ccccc21 |  | 2.06 µM [rising, partial curve] | 1.64 µM [rising, partial curve]
CC(OC(=O)/C=C/c1cccs1)C(=O)NC1CCCCC1C (stereo not drawn) | 19.1% |  | 
COCCCn1c(=O)c2ccccc2n(CC(=O)N2CCCc3ccccc32)c1=O | 1.28% |  | 
C=CCOc1ccccc1CNc1ccccc1C | 78.7% | 20.6 µM [rising, single point] | 29.1 µM [rising, single point]
CCCN(CC(=O)Nc1ccccc1C)C(=O)COC(=O)CSc1ccc([N+](=O)[O-])cc1 | 34.5% |  | 0.651 µM [rising, partial curve]
CCc1ccc(/C=C2\SC(=S)N(CCC(=O)N3CCN(C)CC3)C2=O)cc1 | 36% | 4.61 µM [rising, full curve] | 7.31 µM [rising, partial curve]
CCOc1ccc(NC(=O)CC2C(=O)N(C)C(=S)N2Cc2ccc3c(c2)OCO3)cc1 (stereo not drawn) | -29% | 32.6 µM [falling, single point] | 
OCCN(Cc1ccccc1)CC(O)COc1ccc2c(c1)OCO2 (stereo not drawn) | 40.5% |  | 23.1 µM [rising, single point]
CCN(CC)S(=O)(=O)c1cccc(C(=O)N[C@H](C(=O)NCc2ccccc2F)C(C)C)c1 | 38.6% |  | 7.31 µM [rising, partial curve]
O=C(O)CCCC(=O)N1CCc2cc(S(=O)(=O)N3CCc4ccccc43)ccc21 |  | 1.84 µM [rising, full curve, poor fit] | 
C=CCOc1c(Cl)cc(CNc2ccc(C)c(Cl)c2)cc1OC | -19.2% |  | 
COc1ccc(C=O)cc1COc1ccc(C)cc1[N+](=O)[O-] |  | 8.2 µM [rising, single point] | 6.51 µM [rising, single point]
COc1ccccc1NC(=O)c1cnc(SCC(=O)NCC2CCCO2)n(C)c1=O (stereo not drawn) | 80.5% |  | 13 µM [rising, partial curve]
COc1ccc(N2CCN(C(=O)c3ccc(C)cc3)CC2)c([N+](=O)[O-])c1 | 23% | 29.1 µM [rising, partial curve, poor fit] | 
COc1ccccc1C(=O)NNC1=NS(=O)(=O)c2ccccc21 | -8.03% |  | 
CCCc1cc(-c2n[nH]c(=S)n2-c2cccc(C)c2)cs1 | 20% | 32.6 µM [falling, partial curve, poor fit] | 
N#Cc1c2n(c3c(-c4ccccc4)ncnc13)CCC2 | 2.74% |  | 
COc1ccc(-c2cn3cc(C)ccc3n2)cc1OC | 104% |  | 4.61 µM [falling, single point]
Oc1ccccc1-c1cc(C(F)(F)F)nc(-c2ccccc2)n1 | 7.96% | 32.6 µM [rising, single point] | 
Cc1cccc(N/C=C(\[N+](=O)[O-])S(=O)(=O)c2ccccc2)c1 | 60.7% |  | 

— PubChem BioAssay AID2685 (National Center for Advancing Translational Sciences (NCATS), 2010)
